Assay results: the supplement of paper PMC10849652
The other results are listed elsewhere or left out.

The chains behind the UniProt entries cited, without tags or fusion partners. Where a name states a change or a piece, a line headed by the entry shows the natural chain unless it says otherwise.
UniProt Q96BY9: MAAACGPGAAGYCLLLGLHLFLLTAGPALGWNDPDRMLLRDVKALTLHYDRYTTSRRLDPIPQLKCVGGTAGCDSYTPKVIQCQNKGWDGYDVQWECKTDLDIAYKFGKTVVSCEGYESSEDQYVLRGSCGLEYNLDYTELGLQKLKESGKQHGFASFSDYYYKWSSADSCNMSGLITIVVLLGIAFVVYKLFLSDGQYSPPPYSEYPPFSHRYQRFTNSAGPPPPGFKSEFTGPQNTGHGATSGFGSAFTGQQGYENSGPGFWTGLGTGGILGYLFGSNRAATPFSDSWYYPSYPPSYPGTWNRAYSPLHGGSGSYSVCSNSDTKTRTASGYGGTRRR
UniProt O14521: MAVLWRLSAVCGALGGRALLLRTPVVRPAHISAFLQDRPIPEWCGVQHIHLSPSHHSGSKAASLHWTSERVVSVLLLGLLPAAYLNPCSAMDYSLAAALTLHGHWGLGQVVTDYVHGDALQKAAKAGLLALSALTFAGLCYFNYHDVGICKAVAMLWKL
UniProt Q9BWG6: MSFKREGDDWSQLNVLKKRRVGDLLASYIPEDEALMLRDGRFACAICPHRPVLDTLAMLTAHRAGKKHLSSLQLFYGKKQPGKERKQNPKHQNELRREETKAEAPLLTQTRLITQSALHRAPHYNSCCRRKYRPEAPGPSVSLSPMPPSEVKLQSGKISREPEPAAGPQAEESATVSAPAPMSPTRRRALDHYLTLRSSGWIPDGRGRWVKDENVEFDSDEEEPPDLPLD
UniProt O43819: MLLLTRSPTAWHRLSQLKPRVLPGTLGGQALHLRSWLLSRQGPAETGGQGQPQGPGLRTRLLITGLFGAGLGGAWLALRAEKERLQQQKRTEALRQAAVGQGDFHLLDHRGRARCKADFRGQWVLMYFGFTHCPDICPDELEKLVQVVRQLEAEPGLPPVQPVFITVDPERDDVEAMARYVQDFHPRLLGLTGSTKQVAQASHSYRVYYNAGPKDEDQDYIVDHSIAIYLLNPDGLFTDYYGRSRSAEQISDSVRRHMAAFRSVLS
UniProt O75845: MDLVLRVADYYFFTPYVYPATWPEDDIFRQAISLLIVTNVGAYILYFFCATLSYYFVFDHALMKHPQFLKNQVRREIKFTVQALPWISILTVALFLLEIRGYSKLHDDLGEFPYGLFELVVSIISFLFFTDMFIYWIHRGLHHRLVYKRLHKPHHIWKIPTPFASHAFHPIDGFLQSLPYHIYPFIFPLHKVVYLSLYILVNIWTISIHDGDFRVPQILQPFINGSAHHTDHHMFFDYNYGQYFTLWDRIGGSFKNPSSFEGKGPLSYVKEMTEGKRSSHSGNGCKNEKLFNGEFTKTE
UniProt O15127: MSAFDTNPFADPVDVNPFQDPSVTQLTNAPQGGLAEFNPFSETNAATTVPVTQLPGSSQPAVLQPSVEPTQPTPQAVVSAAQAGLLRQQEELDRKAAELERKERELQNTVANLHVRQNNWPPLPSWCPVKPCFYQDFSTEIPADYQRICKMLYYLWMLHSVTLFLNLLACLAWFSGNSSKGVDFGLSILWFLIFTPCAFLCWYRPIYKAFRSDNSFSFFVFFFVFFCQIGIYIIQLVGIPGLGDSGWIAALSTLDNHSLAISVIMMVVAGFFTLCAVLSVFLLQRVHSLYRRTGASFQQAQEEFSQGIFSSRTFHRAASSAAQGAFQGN
UniProt Q96EU6: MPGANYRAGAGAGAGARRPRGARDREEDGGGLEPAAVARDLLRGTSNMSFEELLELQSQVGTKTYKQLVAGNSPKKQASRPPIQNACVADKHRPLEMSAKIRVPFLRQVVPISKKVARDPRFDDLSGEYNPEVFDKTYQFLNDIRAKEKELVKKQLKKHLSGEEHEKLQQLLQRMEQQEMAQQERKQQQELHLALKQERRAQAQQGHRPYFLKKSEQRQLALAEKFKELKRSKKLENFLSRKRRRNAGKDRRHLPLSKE
UniProt Q92503: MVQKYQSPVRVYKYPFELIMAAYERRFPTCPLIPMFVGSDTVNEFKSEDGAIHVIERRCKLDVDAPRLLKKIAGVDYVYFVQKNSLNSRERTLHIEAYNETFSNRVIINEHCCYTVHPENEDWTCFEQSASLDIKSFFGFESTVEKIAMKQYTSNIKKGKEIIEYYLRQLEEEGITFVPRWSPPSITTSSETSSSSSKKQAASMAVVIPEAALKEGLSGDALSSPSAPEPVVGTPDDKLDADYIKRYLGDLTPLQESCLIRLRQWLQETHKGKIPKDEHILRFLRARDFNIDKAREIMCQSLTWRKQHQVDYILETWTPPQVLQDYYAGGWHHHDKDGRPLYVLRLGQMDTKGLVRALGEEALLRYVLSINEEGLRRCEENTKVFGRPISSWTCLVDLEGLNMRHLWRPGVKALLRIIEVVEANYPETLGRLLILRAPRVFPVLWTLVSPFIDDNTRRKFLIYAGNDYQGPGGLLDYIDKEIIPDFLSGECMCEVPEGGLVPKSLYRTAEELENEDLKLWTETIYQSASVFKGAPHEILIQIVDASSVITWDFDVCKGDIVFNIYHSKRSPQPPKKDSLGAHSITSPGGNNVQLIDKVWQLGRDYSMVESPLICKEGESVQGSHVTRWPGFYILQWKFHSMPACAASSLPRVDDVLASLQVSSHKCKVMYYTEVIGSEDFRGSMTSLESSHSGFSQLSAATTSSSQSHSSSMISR
UniProt Q5VUM1: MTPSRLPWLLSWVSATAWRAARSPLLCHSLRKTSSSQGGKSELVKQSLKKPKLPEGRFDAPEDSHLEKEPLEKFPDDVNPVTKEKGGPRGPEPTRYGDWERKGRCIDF
UniProt Q01196, whole entry, looked up: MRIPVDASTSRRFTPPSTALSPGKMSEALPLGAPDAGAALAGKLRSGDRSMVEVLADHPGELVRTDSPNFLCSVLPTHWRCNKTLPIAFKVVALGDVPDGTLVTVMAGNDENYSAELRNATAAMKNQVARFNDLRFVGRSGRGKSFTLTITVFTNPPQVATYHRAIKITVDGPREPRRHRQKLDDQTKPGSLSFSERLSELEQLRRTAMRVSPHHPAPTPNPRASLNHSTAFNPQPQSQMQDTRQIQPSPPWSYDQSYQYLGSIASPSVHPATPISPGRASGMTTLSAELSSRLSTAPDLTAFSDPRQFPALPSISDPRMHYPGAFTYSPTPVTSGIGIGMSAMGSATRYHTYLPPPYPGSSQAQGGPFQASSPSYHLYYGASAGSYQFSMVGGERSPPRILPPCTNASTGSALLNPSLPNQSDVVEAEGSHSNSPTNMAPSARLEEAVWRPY
UniProt Q9NX18: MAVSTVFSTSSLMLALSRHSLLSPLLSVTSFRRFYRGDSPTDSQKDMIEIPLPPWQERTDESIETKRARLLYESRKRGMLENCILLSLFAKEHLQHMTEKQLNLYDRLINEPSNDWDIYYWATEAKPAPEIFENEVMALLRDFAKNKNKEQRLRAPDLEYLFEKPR
UniProt P57060: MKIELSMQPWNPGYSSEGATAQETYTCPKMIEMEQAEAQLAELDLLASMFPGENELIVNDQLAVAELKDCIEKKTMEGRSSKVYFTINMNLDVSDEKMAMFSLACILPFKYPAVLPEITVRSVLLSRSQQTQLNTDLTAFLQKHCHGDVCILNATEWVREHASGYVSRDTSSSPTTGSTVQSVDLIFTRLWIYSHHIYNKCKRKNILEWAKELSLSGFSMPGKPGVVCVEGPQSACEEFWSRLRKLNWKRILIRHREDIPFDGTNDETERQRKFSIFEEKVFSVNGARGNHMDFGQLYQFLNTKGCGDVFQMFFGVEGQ
UniProt O95969: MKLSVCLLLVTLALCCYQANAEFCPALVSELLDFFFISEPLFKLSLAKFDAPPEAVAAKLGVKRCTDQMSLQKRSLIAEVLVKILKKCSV

Key:
Experiment in all cases: log2 fold change, soluble protein after heating vs DMSO (PISA); higher = thermal stabilisation; K562 cells, 10 uM, 30 min; active = over 0.2 and 3.5 SD of the protein, either way, in both replicates (recomputed)
[1] = compound: CS(=O)(=O)c1ccc(-c2cnc(N)c(C(=O)Nc3ccccc3)n2)cc1
How it was run: (§1)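 Thermal stability values are relative to control samples and come from duplicates. They are expressed as log2 fold changes. For measurement, K562 cells (2×10^6 cells/mL) received 10 μM compound for 30 min, and aliquots were heated for 3 min over 48°C-58°C, pooled, and extracted at 4°C in PBS with 0.5% NP-40. Soluble protein, the supernatant after 21,000xg for 90 min, was quantified by TMTpro 16plex LC-MS/MS with equalised channel sums.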

[2] = compound: C[C@@H]1COCCN1C2=NC(=NC(=C2)C3(CC3)S(=O)(=O)C)C4=C5C=CNC5=CC=C4
How it was run: as §1

[3] = compound: C[C@H](C1=CC=C(C=C1)C(=O)NC2=C3C=CNC3=NC=C2)N
How it was run: as §1

duvelisib = compound: C[C@H](Nc1ncnc2nc[nH]c12)c1cc2cccc(Cl)c2c(=O)n1-c1ccccc1 [duvelisib]
How it was run: as §1

gandotinib = compound: Cc1cc(Nc2cc(CN3CCOCC3)c3nc(C)c(Cc4ccc(Cl)cc4F)n3n2)n[nH]1 [gandotinib]
How it was run: as §1

tozasertib = compound: Cc1cc(Nc2cc(N3CCN(C)CC3)nc(Sc3ccc(NC(=O)C4CC4)cc3)n2)n[nH]1 [tozasertib]
How it was run: as §1

[4] = compound: Cc1cc(SCc2sc(-c3ccc(C(F)(F)F)cc3)nc2C)ccc1OCC(=O)O
How it was run: as §1

bafetinib = compound: Cc1ccc(NC(=O)c2ccc(CN3CC[C@H](N(C)C)C3)c(C(F)(F)F)c2)cc1Nc1nccc(-c2cncnc2)n1 [bafetinib]
How it was run: as §1

[5] = compound: Cc1cccc(CC(=O)N2CCc3c2ccc(-c2cn(C)c4ncnc(N)c24)c3F)n1
How it was run: as §1

dasatinib = compound: Cc1nc(Nc2ncc(C(=O)Nc3c(C)cccc3Cl)s2)cc(N2CCN(CCO)CC2)n1 [dasatinib]
How it was run: as §1

[6] = compound: Cn1cc(-c2ccc3c(c2)CCN3C(=O)Cc2cccc(C(F)(F)F)c2)c2c(N)ncnc21
How it was run: as §1

tipifarnib = compound: Cn1cncc1[C@@](N)(c1ccc(Cl)cc1)c1ccc2c(c1)c(-c1cccc(Cl)c1)cc(=O)n2C [tipifarnib]
How it was run: as §1

crizotinib = compound: C[C@@H](Oc1cc(-c2cnn(C3CCNCC3)c2)cnc1N)c1c(Cl)ccc(F)c1Cl [crizotinib]
How it was run: as §1

doramapimod = compound: Cc1ccc(-n2nc(C(C)(C)C)cc2NC(=O)Nc2ccc(OCCN3CCOCC3)c3ccccc23)cc1 [doramapimod]
How it was run: as §1

ispinesib = compound: Cc1ccc(C(=O)N(CCCN)[C@@H](c2nc3cc(Cl)ccc3c(=O)n2Cc2ccccc2)C(C)C)cc1 [ispinesib]
How it was run: as §1

[7] = compound: Cn1cc(-c2ccc3nnc(C(F)(F)c4ccc5ncccc5c4)n3n2)cn1
How it was run: as §1

mubritinib = compound: FC(F)(F)c1ccc(/C=C/c2nc(COc3ccc(CCCCn4ccnn4)cc3)co2)cc1 [mubritinib]
How it was run: as §1

nilotinib = compound: Cc1cn(-c2cc(NC(=O)c3ccc(C)c(Nc4nccc(-c5cccnc5)n4)c3)cc(C(F)(F)F)c2)cn1 [nilotinib]
How it was run: as §1

[8] = compound: Cc1nc(Nc2n[nH]c3c2CN(C(=O)N[C@H](CN(C)C)c2ccccc2)C3(C)C)c2sccc2n1
How it was run: as §1

[9] = compound: Cc1ncc(-c2ccnc(Nc3ccc(S(C)(=O)=O)cc3)n2)n1C(C)C
How it was run: as §1

Measured: log2 fold change

SARAF (UniProt Q96BY9)
inactive: [1] 0.102 | [2] -0.075 | [3] 0.055 | duvelisib 0.01 | gandotinib 0.092 | tozasertib -0.066 | [4] -0.016 | bafetinib -0.262 | [5] 0.031 | dasatinib -0.103 | [6] 0.13 | tipifarnib 0.09

SAE1 (UniProt M0R286)
inactive: [1] 0.057 | crizotinib 0.065 | [2] 0.086 | [3] 0.385 | doramapimod 0.048 | ispinesib -0.184 | bafetinib 0.124 | [6] -0.2 | [7] 0.139 | tipifarnib 0.383 | mubritinib 0.221

SDHD (UniProt O14521)
inactive: [1] 0.007 | [2] 0.244 | [3] 0.037 | duvelisib 0.161 | gandotinib -0.043 | tozasertib 0.037 | [4] -0.054 | ispinesib 0.092 | bafetinib -0.037 | [5] -0.12 | nilotinib -0.005 | [8] 0.035 | dasatinib -0.013 | [9] -0.041 | [6] -0.128 | [7] 0.073 | tipifarnib 0.002 | mubritinib 0.083

SCNM1 (UniProt Q9BWG6)
inactive: [1] -0.035 | crizotinib -0.093 | [2] 0.111 | duvelisib 0.031 | gandotinib 0.063 | tozasertib 0.016 | [4] -0.096 | doramapimod 0.103 | ispinesib -0.053 | bafetinib -0.188 | [5] -0.122 | nilotinib 0.081 | [8] 0.003 | dasatinib 0.06 | [9] 0.023 | [7] 0.023 | tipifarnib 0.051 | mubritinib -0.05

SCO2 (UniProt O43819)
inactive: [1] 0.062 | crizotinib -0.106 | [2] 0.05 | [3] -0.016 | gandotinib 0.026 | [4] 0.061 | doramapimod -0.031 | ispinesib -0.134 | bafetinib -0.058 | [5] -0.014 | dasatinib -0.042 | [6] 0.107 | [7] 0.039 | tipifarnib 0.014 | mubritinib -0.035

SC5D (UniProt O75845)
inactive: [1] 0.016 | [2] -0.077 | [3] -0.171 | duvelisib 0.151 | gandotinib 0.003 | tozasertib -0.13 | [4] 0.405 | ispinesib -0.06 | bafetinib -0.011 | [5] -0.032 | nilotinib 0.007 | [8] 0.024 | dasatinib 0.008 | [9] -0.033 | [6] 0.083 | [7] 0.074 | tipifarnib 0.034 | mubritinib 0.062

SCAMP2 (UniProt O15127)
inactive: [1] 0.019 | [2] -0.213 | gandotinib 0.034 | [4] -0.065 | ispinesib -0.073 | bafetinib -0.113 | [5] -0.125 | nilotinib 0.084 | [8] -0.107 | dasatinib -0.027 | [9] 0.058 | [6] 0.11 | [7] 0.062 | tipifarnib -0.061 | mubritinib 0.046
active: [3] -0.544

RRP36 (UniProt Q96EU6)
inactive: [1] -0.115 | [2] -0.645 | [3] 0.271 | gandotinib 0.182 | [4] 0.022 | ispinesib 0.043 | bafetinib 0.428 | [5] 0.054 | nilotinib -0.007 | [8] 0.203 | dasatinib 0.164 | [9] -0.011 | [6] -0.319 | [7] -0.016 | tipifarnib 0.208 | mubritinib -0.132

SEC14L1 isoform 2 (UniProt Q92503)
inactive: [1] 0.068 | [2] 0.055 | [3] 0.176 | duvelisib 0.162 | gandotinib 0.21 | tozasertib 0.004 | [4] 0.065 | [5] -0.127 | dasatinib -0.018 | [6] -0.076

Two records drawn at random from the list so far:
SCO2 (UniProt O43819)
inactive: [1] 0.062 | crizotinib -0.106 | [2] 0.05 | [3] -0.016 | gandotinib 0.026 | [4] 0.061 | doramapimod -0.031 | ispinesib -0.134 | bafetinib -0.058 | [5] -0.014 | dasatinib -0.042 | [6] 0.107 | [7] 0.039 | tipifarnib 0.014 | mubritinib -0.035

RRP36 (UniProt Q96EU6)
inactive: [1] -0.115 | [2] -0.645 | [3] 0.271 | gandotinib 0.182 | [4] 0.022 | ispinesib 0.043 | bafetinib 0.428 | [5] 0.054 | nilotinib -0.007 | [8] 0.203 | dasatinib 0.164 | [9] -0.011 | [6] -0.319 | [7] -0.016 | tipifarnib 0.208 | mubritinib -0.132

Continued:

SDHAF4 (UniProt Q5VUM1)
inactive: [1] 0.033 | crizotinib -0.047 | [2] 0.153 | [3] 0.181 | [4] -0.038 | doramapimod 0.091 | bafetinib -0.078 | nilotinib -0.043 | [8] -0.003 | dasatinib 0.034 | [9] 0.056 | [6] 0.077 | tipifarnib -0.041 | mubritinib 0.03

SART3, A0A499FI31
inactive: [1] -0.011 | crizotinib 0.097 | [2] 0.049 | [3] -0.124 | gandotinib -0.056 | [4] 0.051 | doramapimod -0.03 | ispinesib 0.038 | bafetinib -0.057 | [5] 0.039 | nilotinib -0.02 | [8] -0.189 | dasatinib -0.128 | [6] 0.029 | [7] -0.001 | tipifarnib 0.008 | mubritinib 0.024
active: [9] -0.261

RUNX1 isoform 8 (UniProt Q01196)
inactive: [1] 0.106 | crizotinib -0.066 | [2] 0.089 | gandotinib 0.088 | [4] 0.178 | doramapimod 0.054 | ispinesib 0.155 | bafetinib -0.149 | [5] -0.224 | nilotinib -0.07 | [8] -0.281 | dasatinib -0.082 | [9] -0.209 | [7] -0.104 | tipifarnib 0.001 | mubritinib 0.01

SDHAF2 (UniProt Q9NX18)
inactive: [1] -0.042 | crizotinib -0.183 | [2] 0.07 | [3] -0.111 | gandotinib 0.057 | [4] -0.125 | doramapimod -0.051 | ispinesib 0.006 | bafetinib -0.083 | [5] 0.166 | nilotinib -0.02 | [8] 0.022 | dasatinib 0.057 | [9] -0.007 | [6] 0.056 | [7] 0.017 | tipifarnib 0.007 | mubritinib 0.058

RSL1D1 (UniProt O76021)
inactive: [1] -0.146 | crizotinib 0.037 | [2] -0.33 | [3] 0.456 | gandotinib 0.146 | [4] -0.037 | doramapimod 0.312 | ispinesib 0.251 | bafetinib 0.288 | [5] -0.027 | nilotinib 0.117 | [8] 0.109 | dasatinib 0.239 | [9] 0.264 | [6] -0.427 | [7] -0.18 | tipifarnib 0.15 | mubritinib -0.244

RWDD2B (UniProt P57060)
inactive: [1] 0.06 | crizotinib 0.117 | duvelisib 0.038 | gandotinib -0.338 | [4] 0.194 | doramapimod -0.08 | ispinesib -0.098 | [5] 0.012 | dasatinib 0.096 | [7] -0.17 | tipifarnib 0.087

SCGB1D2 (UniProt O95969)
inactive: [1] -0.108 | [2] 0.087 | [3] -0.295 | duvelisib -0.015 | tozasertib 0.152 | [4] -0.029 | ispinesib 0.252 | bafetinib 0.639 | nilotinib -0.43 | [8] 0.337 | dasatinib 0.287 | [9] -0.113 | [6] 0.582 | [7] 0.326 | tipifarnib -0.348 | mubritinib -0.474
